# Laboratory results from the supplement of paper PMC12067093, “Discovery and optimisation of a covalent ligand for TRIM25 and its application to targeted protein ubiquitination” (Chemical Science, 2025).
# Protein sequences, listed by entry. Tags and fused reporters are not part of them. Lines headed by an entry give the natural chain unless they say otherwise; changes in a name come on top.
# UniProt Q5U5X0: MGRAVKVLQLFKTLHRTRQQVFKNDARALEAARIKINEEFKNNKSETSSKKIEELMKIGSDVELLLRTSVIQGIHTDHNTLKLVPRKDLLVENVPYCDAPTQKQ
# UniProt Q92918, whole entry, looked up: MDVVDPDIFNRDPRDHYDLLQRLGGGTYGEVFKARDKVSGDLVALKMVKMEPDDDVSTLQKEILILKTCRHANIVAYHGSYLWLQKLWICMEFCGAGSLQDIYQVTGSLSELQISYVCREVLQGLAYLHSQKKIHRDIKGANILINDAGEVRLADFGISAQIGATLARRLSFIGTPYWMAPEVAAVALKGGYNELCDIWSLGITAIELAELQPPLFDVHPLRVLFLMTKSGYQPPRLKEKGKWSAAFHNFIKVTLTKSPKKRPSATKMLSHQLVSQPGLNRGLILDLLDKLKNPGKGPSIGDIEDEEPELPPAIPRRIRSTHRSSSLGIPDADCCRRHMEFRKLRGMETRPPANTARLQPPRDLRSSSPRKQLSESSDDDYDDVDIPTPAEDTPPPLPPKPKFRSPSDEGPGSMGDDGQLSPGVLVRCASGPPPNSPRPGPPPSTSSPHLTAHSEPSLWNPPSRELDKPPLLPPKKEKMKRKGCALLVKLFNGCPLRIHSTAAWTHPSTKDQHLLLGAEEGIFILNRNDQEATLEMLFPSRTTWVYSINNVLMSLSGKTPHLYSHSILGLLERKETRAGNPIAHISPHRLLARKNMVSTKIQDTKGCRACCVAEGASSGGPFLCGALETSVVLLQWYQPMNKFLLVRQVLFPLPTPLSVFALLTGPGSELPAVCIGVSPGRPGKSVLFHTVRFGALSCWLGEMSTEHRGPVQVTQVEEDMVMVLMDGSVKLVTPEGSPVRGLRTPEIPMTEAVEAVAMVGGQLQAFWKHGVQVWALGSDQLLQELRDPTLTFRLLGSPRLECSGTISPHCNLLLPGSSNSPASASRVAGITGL
# UniProt P56192: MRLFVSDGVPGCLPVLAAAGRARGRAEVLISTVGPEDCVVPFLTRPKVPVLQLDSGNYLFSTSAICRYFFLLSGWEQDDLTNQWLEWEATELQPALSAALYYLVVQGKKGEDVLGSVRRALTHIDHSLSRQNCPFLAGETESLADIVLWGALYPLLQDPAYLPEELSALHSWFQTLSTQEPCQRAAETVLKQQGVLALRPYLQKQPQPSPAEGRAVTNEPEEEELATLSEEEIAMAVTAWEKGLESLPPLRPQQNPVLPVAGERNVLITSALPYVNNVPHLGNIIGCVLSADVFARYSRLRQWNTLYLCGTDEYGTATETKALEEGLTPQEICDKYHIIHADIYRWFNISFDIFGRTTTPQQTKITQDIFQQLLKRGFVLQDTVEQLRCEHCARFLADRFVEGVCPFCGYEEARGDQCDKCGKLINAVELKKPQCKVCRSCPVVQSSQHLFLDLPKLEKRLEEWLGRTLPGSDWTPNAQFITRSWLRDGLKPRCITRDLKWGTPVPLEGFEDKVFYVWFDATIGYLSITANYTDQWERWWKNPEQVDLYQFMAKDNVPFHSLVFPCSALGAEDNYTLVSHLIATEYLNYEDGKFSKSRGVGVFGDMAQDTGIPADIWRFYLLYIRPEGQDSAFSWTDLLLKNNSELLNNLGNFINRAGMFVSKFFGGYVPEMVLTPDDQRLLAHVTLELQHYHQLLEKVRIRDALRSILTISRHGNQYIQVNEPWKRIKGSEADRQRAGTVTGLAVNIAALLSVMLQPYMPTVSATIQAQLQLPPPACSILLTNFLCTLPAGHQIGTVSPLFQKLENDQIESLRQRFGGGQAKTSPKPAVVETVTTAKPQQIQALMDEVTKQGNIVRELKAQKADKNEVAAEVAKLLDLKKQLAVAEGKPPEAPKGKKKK
# UniProt Q05BQ5, whole entry, looked up: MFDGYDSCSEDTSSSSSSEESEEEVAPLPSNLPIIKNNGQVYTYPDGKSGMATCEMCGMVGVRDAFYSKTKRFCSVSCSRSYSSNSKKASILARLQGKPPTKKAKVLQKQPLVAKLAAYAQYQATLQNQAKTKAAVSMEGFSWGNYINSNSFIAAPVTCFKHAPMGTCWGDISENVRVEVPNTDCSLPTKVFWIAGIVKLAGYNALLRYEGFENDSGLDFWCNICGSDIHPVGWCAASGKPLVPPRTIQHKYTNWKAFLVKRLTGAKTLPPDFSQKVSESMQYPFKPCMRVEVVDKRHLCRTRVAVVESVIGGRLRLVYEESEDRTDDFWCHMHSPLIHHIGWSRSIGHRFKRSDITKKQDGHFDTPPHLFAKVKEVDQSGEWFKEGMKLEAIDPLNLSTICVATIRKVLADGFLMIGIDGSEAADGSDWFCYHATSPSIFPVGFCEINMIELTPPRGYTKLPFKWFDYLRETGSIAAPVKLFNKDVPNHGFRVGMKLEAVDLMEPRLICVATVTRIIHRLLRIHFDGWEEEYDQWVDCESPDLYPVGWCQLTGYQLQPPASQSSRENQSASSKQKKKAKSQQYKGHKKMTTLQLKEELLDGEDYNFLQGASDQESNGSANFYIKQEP
# UniProt Q9Y6D9: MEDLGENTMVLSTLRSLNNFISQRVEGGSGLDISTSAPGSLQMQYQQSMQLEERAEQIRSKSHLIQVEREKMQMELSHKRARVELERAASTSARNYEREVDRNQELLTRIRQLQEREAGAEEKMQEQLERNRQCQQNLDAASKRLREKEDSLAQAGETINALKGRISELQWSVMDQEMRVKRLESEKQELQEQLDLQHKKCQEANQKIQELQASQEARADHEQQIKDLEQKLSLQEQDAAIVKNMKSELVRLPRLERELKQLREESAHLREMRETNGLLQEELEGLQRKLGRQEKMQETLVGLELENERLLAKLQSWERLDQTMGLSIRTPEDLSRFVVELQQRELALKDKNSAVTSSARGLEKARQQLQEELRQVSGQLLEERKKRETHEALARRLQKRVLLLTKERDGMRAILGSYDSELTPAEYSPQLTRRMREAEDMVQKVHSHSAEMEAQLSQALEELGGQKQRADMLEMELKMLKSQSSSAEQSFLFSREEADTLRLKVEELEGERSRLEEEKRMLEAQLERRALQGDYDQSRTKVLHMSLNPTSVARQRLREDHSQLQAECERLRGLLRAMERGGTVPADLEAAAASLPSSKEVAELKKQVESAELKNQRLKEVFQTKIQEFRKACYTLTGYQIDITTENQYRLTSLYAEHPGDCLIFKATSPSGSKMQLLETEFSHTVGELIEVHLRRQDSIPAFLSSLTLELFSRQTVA
# UniProt Q5VT66: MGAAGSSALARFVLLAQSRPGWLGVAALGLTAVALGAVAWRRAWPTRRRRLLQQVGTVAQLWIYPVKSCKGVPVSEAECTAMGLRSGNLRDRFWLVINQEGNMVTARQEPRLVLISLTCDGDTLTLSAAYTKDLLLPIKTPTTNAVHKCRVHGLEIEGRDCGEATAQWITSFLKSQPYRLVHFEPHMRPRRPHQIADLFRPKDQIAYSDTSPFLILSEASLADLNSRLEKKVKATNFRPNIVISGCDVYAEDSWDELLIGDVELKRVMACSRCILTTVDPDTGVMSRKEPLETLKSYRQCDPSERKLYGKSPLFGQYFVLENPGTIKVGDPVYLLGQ
# UniProt P53778: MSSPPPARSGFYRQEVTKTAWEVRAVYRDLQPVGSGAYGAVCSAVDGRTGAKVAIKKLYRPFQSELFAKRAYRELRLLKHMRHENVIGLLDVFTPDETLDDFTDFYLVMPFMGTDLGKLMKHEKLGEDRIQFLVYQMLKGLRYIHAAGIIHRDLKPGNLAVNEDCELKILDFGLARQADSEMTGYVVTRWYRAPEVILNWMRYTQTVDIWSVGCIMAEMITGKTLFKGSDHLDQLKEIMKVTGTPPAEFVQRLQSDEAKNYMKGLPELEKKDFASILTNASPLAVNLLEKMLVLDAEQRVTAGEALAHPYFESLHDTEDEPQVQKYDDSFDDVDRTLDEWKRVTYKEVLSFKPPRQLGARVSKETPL
# UniProt Q8N653: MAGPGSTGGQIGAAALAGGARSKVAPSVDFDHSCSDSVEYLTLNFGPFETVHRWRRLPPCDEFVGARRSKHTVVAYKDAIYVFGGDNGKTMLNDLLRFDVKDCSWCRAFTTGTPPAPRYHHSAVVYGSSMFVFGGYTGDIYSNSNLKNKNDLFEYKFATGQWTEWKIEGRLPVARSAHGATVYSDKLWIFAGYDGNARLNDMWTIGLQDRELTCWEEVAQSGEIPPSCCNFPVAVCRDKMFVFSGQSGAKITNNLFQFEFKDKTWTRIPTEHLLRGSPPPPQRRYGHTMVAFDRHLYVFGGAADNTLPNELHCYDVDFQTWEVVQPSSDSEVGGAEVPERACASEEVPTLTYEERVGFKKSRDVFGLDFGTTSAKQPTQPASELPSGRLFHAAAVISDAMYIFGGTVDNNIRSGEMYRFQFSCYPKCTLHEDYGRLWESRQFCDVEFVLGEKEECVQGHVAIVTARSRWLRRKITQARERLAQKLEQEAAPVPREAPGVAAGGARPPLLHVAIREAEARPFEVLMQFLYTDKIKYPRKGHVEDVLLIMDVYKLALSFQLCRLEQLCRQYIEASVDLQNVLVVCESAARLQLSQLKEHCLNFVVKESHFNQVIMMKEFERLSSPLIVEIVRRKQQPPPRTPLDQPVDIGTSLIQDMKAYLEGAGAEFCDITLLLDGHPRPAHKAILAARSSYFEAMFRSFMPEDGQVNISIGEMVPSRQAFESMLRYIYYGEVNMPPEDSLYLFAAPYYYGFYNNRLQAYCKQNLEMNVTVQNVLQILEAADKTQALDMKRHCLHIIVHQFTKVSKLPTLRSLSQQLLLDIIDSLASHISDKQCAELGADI
# UniProt Q9NZL9, whole entry, looked up: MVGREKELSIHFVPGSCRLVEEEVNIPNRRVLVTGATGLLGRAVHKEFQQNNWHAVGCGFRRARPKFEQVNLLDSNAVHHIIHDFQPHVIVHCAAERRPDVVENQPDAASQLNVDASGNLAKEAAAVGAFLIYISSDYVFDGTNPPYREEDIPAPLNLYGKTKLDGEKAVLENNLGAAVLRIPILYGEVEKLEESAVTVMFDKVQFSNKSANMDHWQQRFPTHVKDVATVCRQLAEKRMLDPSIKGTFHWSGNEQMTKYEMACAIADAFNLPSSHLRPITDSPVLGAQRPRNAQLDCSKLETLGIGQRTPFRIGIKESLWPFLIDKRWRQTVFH
# UniProt Q9NQ29: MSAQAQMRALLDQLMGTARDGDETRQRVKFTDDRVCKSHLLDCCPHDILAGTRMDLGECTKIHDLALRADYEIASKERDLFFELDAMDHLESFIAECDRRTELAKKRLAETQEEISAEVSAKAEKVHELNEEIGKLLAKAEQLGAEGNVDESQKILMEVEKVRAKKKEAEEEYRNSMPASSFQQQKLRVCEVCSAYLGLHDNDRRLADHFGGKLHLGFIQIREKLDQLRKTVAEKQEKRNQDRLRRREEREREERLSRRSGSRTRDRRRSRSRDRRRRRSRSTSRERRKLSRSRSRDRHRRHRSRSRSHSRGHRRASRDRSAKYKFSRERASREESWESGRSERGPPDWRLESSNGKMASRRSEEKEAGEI
# This is one part of the list.
# Compound: Cc1cc(ccc1-c1ccccc1)C(=O)N1CCCN(CC1)C(=O)CCl [compound 10]
# Experiment: probe-labelled cysteine peptide fold change vs DMSO (competition) (log2 fold change); higher = less target engagement (more negative = stronger competition)
# Conditions: 10 µM; THP-1; incubation time: 4 h
# 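Also: competitive profiling in live THP-1 cells: cysteine peptides tagged with an iodoacetamide desthiobiotin (IA-DTB) probe, intensity after compound treatment relative to DMSO-treated cells.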
row,Target,probe-labelled cysteine peptide fold change
1,LYRM7_Q5U5X0_97_DLLVENVPYCDAPTQK (UniProt Q5U5X0),-0.316
2,MAP4K1_Q92918_334+335_SSSLGIPDADCCR (UniProt Q92918),-0.26
3,MARS_P56192_309_LRQWNTLYLCGTDEYGTATETK (UniProt P56192),-0.0574
4,MBTD1_Q05BQ5_288_VSESMQYPFKPCMR (UniProt Q05BQ5),0.00855
5,MAD1L1_Q9Y6D9_662_LTSLYAEHPGDCLIFK (UniProt Q9Y6D9),0.0134
6,LYST_Q99698_2223_SEDDSPGDESCPR (UniProt Q99698),-0.367
7,MARC1_Q5VT66_79_GVPVSEAECTAMGLR (UniProt Q5VT66),0.0332
8,MAPK12_P53778_42_DLQPVGSGAYGAVCSAVDGR (UniProt P53778),-0.186
9,MACF1_Q9UPN3_443_IQNGALNCEEK (UniProt Q9UPN3),0.131
10,LZTR1_Q8N653_667_AYLEGAGAEFCDITLLLDGHPRPAHK (UniProt Q8N653),-0.0805
11,MAT2B_Q9NZL9_17_ELSIHFVPGSCR (UniProt Q9NZL9),-0.0851
12,MAT2B_Q9NZL9_231_DVATVCR (UniProt Q9NZL9),-0.17
13,LUC7L_Q9NQ29_97_ERDLFFELDAMDHLESFIAECDRR (UniProt Q9NQ29),0.215
14,MBTD1_Q05BQ5_185_VEVPNTDCSLPTK (UniProt Q05BQ5),-0.0433
15,MACF1_Q9UPN3_892_NDECVLEDNSQR (UniProt Q9UPN3),0.0852
16,MARS_P56192_333_ALEEGLTPQEICDK (UniProt P56192),0.0983

# Two entries drawn at random from those above, as already listed:
row,Target,probe-labelled cysteine peptide fold change
16,MARS_P56192_333_ALEEGLTPQEICDK (UniProt P56192),0.0983
2,MAP4K1_Q92918_334+335_SSSLGIPDADCCR (UniProt Q92918),-0.26
